Measured values as given in publication PMC10556042.
Results are given in words; binding and its absence hold for the method and conditions named. Some entries that bind do so weakly or less than the wild type.

Chains of the proteins cited; added tags and fusions are not shown.
UniProt P62068: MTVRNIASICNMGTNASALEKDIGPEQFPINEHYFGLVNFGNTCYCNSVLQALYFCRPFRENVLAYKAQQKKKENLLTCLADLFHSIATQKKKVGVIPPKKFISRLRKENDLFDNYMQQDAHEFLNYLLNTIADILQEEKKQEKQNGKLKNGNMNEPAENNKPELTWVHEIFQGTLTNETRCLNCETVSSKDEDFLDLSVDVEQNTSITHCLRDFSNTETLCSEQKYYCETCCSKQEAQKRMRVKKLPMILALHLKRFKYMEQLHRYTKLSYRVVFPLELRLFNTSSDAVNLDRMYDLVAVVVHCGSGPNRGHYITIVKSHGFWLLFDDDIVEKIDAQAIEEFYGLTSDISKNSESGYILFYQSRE
UniProt Q8TAF3: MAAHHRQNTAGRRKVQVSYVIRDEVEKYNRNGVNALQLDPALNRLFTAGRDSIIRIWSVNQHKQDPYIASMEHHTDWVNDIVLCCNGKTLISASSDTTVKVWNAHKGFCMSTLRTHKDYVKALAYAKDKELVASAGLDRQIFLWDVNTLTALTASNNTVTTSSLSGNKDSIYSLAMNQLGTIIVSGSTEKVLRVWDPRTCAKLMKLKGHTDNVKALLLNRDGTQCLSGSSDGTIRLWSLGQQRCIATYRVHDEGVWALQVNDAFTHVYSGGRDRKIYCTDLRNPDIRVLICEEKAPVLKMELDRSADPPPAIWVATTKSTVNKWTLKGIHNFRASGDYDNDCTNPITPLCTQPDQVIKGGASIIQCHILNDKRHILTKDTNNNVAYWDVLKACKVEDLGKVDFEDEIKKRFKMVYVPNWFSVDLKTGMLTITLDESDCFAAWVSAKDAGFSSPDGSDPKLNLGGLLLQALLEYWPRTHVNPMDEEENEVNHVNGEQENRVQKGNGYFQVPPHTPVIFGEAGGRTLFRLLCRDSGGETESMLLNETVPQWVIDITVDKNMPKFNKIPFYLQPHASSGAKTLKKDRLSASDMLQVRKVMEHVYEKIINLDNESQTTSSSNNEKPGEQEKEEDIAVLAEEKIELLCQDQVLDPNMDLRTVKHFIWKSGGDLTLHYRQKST

Molecular target: USP46, endogenous (human (endogenous in HEK293)) (UniProt P62068)
Assay: SEC; HEK293 cells with or without Wnt3a, detergent-free NDLB lysates, 100,000 x g supernatant on Superdex 200 10/300; fractions TCA-precipitated and immunoblotted; peak broadened with Wnt3a

| binding | Molecule |
| --- | --- |
| binds | UAF1, endogenous (from UniProt Q8TAF3 1-677) |
| binds | WDR20, endogenous (protein, UniProt Q8TBZ3 1-569) MATEGGGKEMNEIKTQFTTREGLYKLLPHSEYSRPNRVPFNSQGSNPVRVSFVNLNDQSGNGDRLCFNVGRELYFYIYKGVRKAADLSKPIDKRIYKGTQPTCHDFNHLTATAESVSLLVGFSAGQVQLIDPIKKETSKLFNEERLIDKSRVTCVKWVPGSESLFLVAHSSGNMYLYNVEHTCGTTAPHYQLLKQGESFAVHTCKSKSTRNPLLKWTVGEGALNEFAFSPDGKFLACVSQDGFLRVFNFDSVELHGTMKSYFGGLLCVCWSPDGKYIVTGGEDDLVTVWSFVDCRVIARGHGHKSWVSVVAFDPYTTSVEEGDPMEFSGSDEDFQDLLHFGRDRANSTQSRLSKRNSTDSRPVSVTYRFGSVGQDTQLCLWDLTEDILFPHQPLSRARTHTNVMNATSPPAGSNGNSVTTPGNSVPPPLPRSNSLPHSAVSNAGSKSSVMDGAIASGVSKFATLSLHDRKERHHEKDHKRNHSMGHISSKSSDKLNLVTKTKTDPAKTLGTPLCPRMEDVPLLEPLICKKIAHERLTVLIFLEDCIVTACQEGFICTWGRPGKVVSFNP |
